Here are results for nine molecules from article PMC6570896.

By UniProt entry, the sequences of proteins in these tests, tags left out. Where a name states a change or a piece, a line headed by the entry shows the natural chain unless it says otherwise.
UniProt Q8VXX4: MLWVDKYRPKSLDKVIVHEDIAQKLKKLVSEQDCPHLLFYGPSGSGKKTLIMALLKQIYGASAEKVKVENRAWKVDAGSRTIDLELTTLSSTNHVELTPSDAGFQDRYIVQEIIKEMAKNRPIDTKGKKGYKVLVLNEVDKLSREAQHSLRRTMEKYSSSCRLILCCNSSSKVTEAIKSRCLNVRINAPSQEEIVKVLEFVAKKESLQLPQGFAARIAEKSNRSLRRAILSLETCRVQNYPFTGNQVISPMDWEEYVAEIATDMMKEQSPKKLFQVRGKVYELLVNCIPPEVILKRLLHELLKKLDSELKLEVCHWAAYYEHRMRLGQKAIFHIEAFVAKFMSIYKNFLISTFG
UniProt Q9CAQ8: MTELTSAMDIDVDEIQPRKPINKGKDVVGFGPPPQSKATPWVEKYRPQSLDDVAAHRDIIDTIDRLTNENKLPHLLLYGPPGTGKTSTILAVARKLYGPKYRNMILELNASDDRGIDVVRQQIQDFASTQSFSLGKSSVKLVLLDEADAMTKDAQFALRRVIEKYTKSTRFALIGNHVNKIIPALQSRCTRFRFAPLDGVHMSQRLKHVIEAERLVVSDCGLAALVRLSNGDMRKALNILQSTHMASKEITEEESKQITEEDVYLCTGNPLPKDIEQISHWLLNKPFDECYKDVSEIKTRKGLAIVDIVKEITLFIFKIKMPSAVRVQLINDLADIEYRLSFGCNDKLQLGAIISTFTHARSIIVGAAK

No constants are given. Whether binding was seen depends on the method and setting. In cells and extracts the contact can be indirect. A result given as binding can be weak or reduced; the word gives no strength. Tags and fused reporters may be left off the sequences shown.

In test [1] the target is AtRFC5-YFP^N (Arabidopsis thaliana) (UniProt Q8VXX4). Briefly: split reporter; BiFC: fusions to YFP^N (1-155 aa) and YFP^C (156-239 aa) co-expressed transiently in Nicotiana benthamiana leaf epidermal cells; YFP seen by confocal microscopy.
The target in test [2] is AtRFC3-YFP^N (Arabidopsis thaliana) (UniProt Q9CAQ8). The test is described as above.

B1: AtPCNA2 Δ145–264 (domain or fragment, UniProt Q9ZW35 1-144)
chain: MLELRLVQGSLLKKVLEAVKDLVNDANFDCSTTGFSLQAMDSSHVALVSLLLRSEGFEHYRCDRNLSMGMNLGNMSKMLKCAGNDDIITIKADDGSDTVTFMFESPTQDKIADFEMKLMDIDSEHLGIPDAEYHSIVRMPSGEF
On to B1, for which the binding result in test [1] and in test [2] was “no binding” throughout.

B2: AtPCNA2 Δ245–264 (domain or fragment, UniProt Q9ZW35 1-244)
chain: MLELRLVQGSLLKKVLEAVKDLVNDANFDCSTTGFSLQAMDSSHVALVSLLLRSEGFEHYRCDRNLSMGMNLGNMSKMLKCAGNDDIITIKADDGSDTVTFMFESPTQDKIADFEMKLMDIDSEHLGIPDAEYHSIVRMPSGEFSRICKDLSSIGDTVVISVTKEGVKFSTAGDIGTANIVLRQNTTVDKPEDAIVIEMNEPVSLSFALRYMNSFTKATPLSETVTISLSSELPVVVEYKVAEM
On to B2, for which the binding entry in test [1] and in test [2] was “no binding” each time.

B3: AtPCNA1 Δ144–263 (domain or fragment, UniProt Q9M7Q7 1-143)
chain: MLELRLVQGSLLKKVLESIKDLVNDANFDCSSTGFSLQAMDSSHVALVSLLLRSEGFEHYRCDRNLSMGMNLGNMSKMLKCAGNDDIITIKADDGGDTVTFMFESPTQDKIADFEMKLMDIDSEHLGIPDAEYHSIVRMPSNE
In the case of B3, the binding result in test [1] and in test [2] was “no binding” each time.

B4: AtPCNA1 Δ1–136 (domain or fragment, UniProt Q9M7Q7 137-263)
chain: VRMPSNEFSRICKDLSSIGDTVVISVTKEGVKFSTAGDIGTANIVLRQNTTVDKPEDAIVIEMKEPVSLSFALRYMNSFTKATPLSDTVTISLSSELPVVVEYKVAEMGYIRYYLAPKIEEEEDTNP
Consider B4, for which the binding entry in test [1] and in test [2] was “no binding” each time.

B5: AtPCNA1 Δ1–120 (domain or fragment, UniProt Q9M7Q7 121-263)
chain: IDSEHLGIPDAEYHSIVRMPSNEFSRICKDLSSIGDTVVISVTKEGVKFSTAGDIGTANIVLRQNTTVDKPEDAIVIEMKEPVSLSFALRYMNSFTKATPLSDTVTISLSSELPVVVEYKVAEMGYIRYYLAPKIEEEEDTNP
Take B5: the binding entry in test [1] and in test [2] was “binds” in each case.

B6: AtPCNA1 Δ244–263 (domain or fragment, UniProt Q9M7Q7 1-243)
chain: MLELRLVQGSLLKKVLESIKDLVNDANFDCSSTGFSLQAMDSSHVALVSLLLRSEGFEHYRCDRNLSMGMNLGNMSKMLKCAGNDDIITIKADDGGDTVTFMFESPTQDKIADFEMKLMDIDSEHLGIPDAEYHSIVRMPSNEFSRICKDLSSIGDTVVISVTKEGVKFSTAGDIGTANIVLRQNTTVDKPEDAIVIEMKEPVSLSFALRYMNSFTKATPLSDTVTISLSSELPVVVEYKVAE
B6: the binding result in test [1] and in test [2] was “no binding” each time.

B7: AtPCNA1 Δ128–263-YFP^N (domain or fragment, UniProt Q9M7Q7 1-127)
chain: MLELRLVQGSLLKKVLESIKDLVNDANFDCSSTGFSLQAMDSSHVALVSLLLRSEGFEHYRCDRNLSMGMNLGNMSKMLKCAGNDDIITIKADDGGDTVTFMFESPTQDKIADFEMKLMDIDSEHLG
As for B7, the binding result in test [1] and in test [2] was “no binding” throughout.

B8: AtPCNA2 Δ1–120 (domain or fragment, UniProt Q9ZW35 121-264)
chain: IDSEHLGIPDAEYHSIVRMPSGEFSRICKDLSSIGDTVVISVTKEGVKFSTAGDIGTANIVLRQNTTVDKPEDAIVIEMNEPVSLSFALRYMNSFTKATPLSETVTISLSSELPVVVEYKVAEMGYIRYYLAPKIEEEEDTKPE
Take B8: the binding result in test [1] and in test [2] was “binds” throughout.

B9: AtPCNA2 Δ1–136 (domain or fragment, UniProt Q9ZW35 137-264)
chain: VRMPSGEFSRICKDLSSIGDTVVISVTKEGVKFSTAGDIGTANIVLRQNTTVDKPEDAIVIEMNEPVSLSFALRYMNSFTKATPLSETVTISLSSELPVVVEYKVAEMGYIRYYLAPKIEEEEDTKPE
Take B9: the binding entry in test [1] and in test [2] was “no binding” each time.
